The values below are quoted from earlier work in publication PMC7751758, “Repurposing Sigma-1 Receptor Ligands for COVID-19 Therapy?” (Frontiers in Pharmacology, 2020).

The subject of series [1] is HCV-induced cytopathic effect on the engineered cell line n4mBid. The note with it: leads of the cell protection screen, ref Chockalingam et al., 2010.
The test system of series [2] is EBOV. Particulars: guinea pig, in vivo.
Series [3] has as its system HCV infection of human hepatocarcinoma Huh-7 cells. The note with it: absence of cytotoxicity at low micromolar and submicromolar concentrations; ref Gastaminza et al., 2010.
In series [4] the test system is Ebola virus (EBOV).

Read-outs that look alike come from different tables or passages of the source. Where only a bound is given, the exact number is not on record here.

Turning to `CCCCc1oc2ccccc2c1C(=O)c1cc(I)c(OCCN(CC)CC)c(I)c1` [Amiodarone], the figures for the “alleviation of HCV-induced cytopathic effect (n4mBid cell viability relative to untreated cells)” value in series [1] and in series [1] (listed as amiodarone) were “inhibit the HCV-induced cytopathic effect” and “increase n4mBid cell viability”, respectively. Moreover, the “protection from a lethal dose of EBOV” value in series [2] is given as “failed to protect”. The “reduction in HCV infection of Huh-7 cells, as compared to the vehicle DMSO control” value in series [3] is on record as above 85%. The cellular toxicity in series [4] was below 30%.
